These results are taken from PubChem BioAssay AID1347423 (Functional Genomics Laboratory (NCATS/FGL), 2020).

The whole screen tested about 52,000 sequences, of which about 210 (0.4%) were called active.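 How the source made its calls: active means gene whose silencing raises cell survival under the drug, median off-target-corrected z-score across its silencing RNAs 2 or more; inactive means the rest.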 The list shows a part of the results.

The experiment is described as follows: Resistance to Poly (ADP-Ribose) Polymerase inhibitor: Gene Identification via Genome-wide siRNA Screen. The note with it: mouse BRCA2 R2336H ES cells, olaparib, CellTiter-Glo viability; active compounds read high. The method, boiled down: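 Mouse BRCA2 R2336H ES cells were reverse-transfected with siRNA (20 nM final), treated at 48 h with 500 nM olaparib, and read by CellTiter-Glo after 72 h. Scores: MAD-based z per siRNA, median per gene, seed off-target correction.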
On the technique in general: ATP-based viability assays read luminescence as a measure of living cells.
On to GGAGCUUCAGCAUGAAAACTT against Ulk2, for which the z-score was inactive: -0.337.

As for GCAGAGAUCCCUUCUACAATT against Rnf32, the z-score is inactive: -0.879.

In the case of CGAUAGCGAAUUUACAGUUTT against Prdx6, the z-score was inactive: -0.129.

Regarding GGAAACCUGAUGAUCUUUUTT against Olfr421, the z-score is inactive: -0.43.

As for “GGCCUGUUUUGAAGUAGAATT against B630019K06Rik”, the z-score is inactive: -1.48.

Consider GGAAACCAAUAGGAAGUAUTT against Ubqln1, for which the z-score was inactive: -1.28.

For the sequence GGAGAGCUAGCCUUAAUAATT against Bspry, the z-score was inactive: 0.758.

On to “GCAUGGUUUAAUGGCUCGGTT against A930016P21Rik”, for which the z-score is inactive: 1.29.

For “GCUCACAAAGCAAAGACAATT against 3110009E18Rik”, the z-score was inactive: -0.441.

With GGGACUUACAAGCAGAUUCTT against Casp9, the z-score is inactive: 0.166.

As for GGUCCAGAAGAAUUAUGAATT against Magmas, the z-score is inactive: -0.776.

Regarding “GGAGUUCCACUUUCCAGUUTT against D2Bwg0891e”, the z-score was inactive: -0.665.

In the case of “GCAGAAAUCUGCCCAGCAGTT against 2410005K17Rik”, the z-score is inactive: -0.695.

On to “CGGAUCUGAGAUAAAGACGTT against 9330196J05Rik”, for which the z-score is inactive: 1.49.

With GGGCUACUGAGAAAAUUACTT against BC006909, the z-score is inactive: 2.6.

GGAAGGAAGAUGAAAGCCATT against Hspb3: the z-score is inactive: -0.395.

For the sequence “GGUAUCAGUGAGUGGUACGTT against 5730449L18Rik”, the z-score was inactive: 1.63.

With GGUGAUAACUCCCUAGUAGTT against Rai12, the z-score is inactive: -1.43.

As to “GCUCUGUUCACCUACCCGATT against D10Ertd641e”, the z-score was inactive: 0.136.

In the case of GAGGUUCAGUUUUGGCUGGTT against Olfr558, the z-score is inactive: 0.309.

As for GGAAGACAACUGUUGUGGCTT against Nsddr, the z-score is inactive: 0.0579.

As for GCUAAAAACAGCUAAAGAATT against Adam4, the z-score was inactive: -0.0849.

Regarding GGCAGUUCAAGGCAAUAAATT against Olfm1, the z-score was inactive: -2.09.

GCCGCUUGAAGACCAGAAATT against Trp53i11: the z-score was inactive: -0.231.

Turning to GGGUGGAGUAAAGCUCUAUTT against Olfr1223, the z-score is inactive: -0.89.

In the case of GGAUGUCCAGAUGUAAAUATT against Vps16, the z-score was inactive: -1.42.

Turning to GCUAAUCAAGACCGAGCAUTT against Vps33b, the z-score is inactive: 2.61.

Consider GGAUGGUGCUGUAAAGAAATT against Crlz1, for which the z-score is inactive: -1.61.

On to CCACUAGUUAGGUACUAACTT against Ifitm6, for which the z-score was inactive: -1.1.

Consider GGAGAGCCUUAUUCAUCGCTT against H2-DMb2, for which the z-score was inactive: -0.0154.

As for GGGUAGUUUAUUUCUUUGCTT against AV125803, the z-score is inactive: 0.827.

With GCCACUGUACCUUAUUGGUTT against Sepx1, the z-score was inactive: -0.0851.

As to GGAGGACUGUCCAAAAGAATT against Tnfrsf18, the z-score was inactive: -0.973.

For the sequence “GGAUUUCAACCUUCUUGUUTT against 2310057N15Rik”, the z-score was inactive: -0.385.

For the sequence “GCAAGAGUUAGUCUAAUGUTT against A730042J05Rik”, the z-score is inactive: -0.469.

Regarding GGUAUGAGCUGAUCAAGUATT against Slc27a2, the z-score was inactive: -0.927.

Consider GAAAUGCAACGGCCACUGCTT against Spp1, for which the z-score was inactive: -1.61.

On to “GGAAAAGCCGCACUUUAUATT against 2700087H15Rik”, for which the z-score is inactive: -0.564.

Consider CCCUGAUUCCAAGUCAUCATT against Lect2, for which the z-score was inactive: 1.5.

Take “GGUAUUGGGUUCCAUUAUATT against 6030422M02Rik”: the z-score was inactive: 1.94.

Take “GCAUGAUGGUGCGCUUAAGTT against 1500001L15Rik”: the z-score is inactive: -0.628.

As for GCCCUUGACUUCAAUACCCTT against Shc1, the z-score was inactive: 1.72.

Take GGUUUUAGAAUUCUGGACGTT against BC018242: the z-score was inactive: -0.843.

For the sequence GCAGCGAUGGGUGUUUAUGTT against BC038059, the z-score is inactive: 0.601.

In the case of GGGUAUAAUCCACAUCCAATT against Tyms, the z-score is inactive: -0.673.

On to GGAGGUCAAUGACUUCGCATT against Trip10, for which the z-score is inactive: -0.322.

Consider CCAAUUUCAUACGGCAGUCTT against Pqlc2, for which the z-score was inactive: 1.82.

GCGUGCAUAUAUCCAAUGCTT against Tardbp: the z-score was inactive: 3.08.

Take “CGAAGUAUUUGGUGGACCATT against D14Ertd449e”: the z-score was inactive: -1.35.

For the sequence “GGAUGUGAUGGCGACUCUATT against B930041G04”, the z-score was inactive: -2.07.

As for GGAAAACGAGUCAAACUCATT against Lnx2, the z-score is inactive: -0.0784.

Take GCAUUAUGGGACUAGAAGGTT against Scfd1: the z-score is inactive: 0.84.

Take CCUGAUAUAUGACUUUGGCTT against Ntf5: the z-score is inactive: -0.0586.

Consider GGUGCAAAUGGCAGAUACATT against Olfr919, for which the z-score is inactive: -2.6.

Regarding GGAUGGUUUCCGUAAAGCUTT against Pacsin3, the z-score was inactive: -0.0425.

GGCUUGAAGUUCAUUUAUUTT against Nkiras2: the z-score was inactive: 0.103.

In the case of CCAUAUUCGAGAUACUCUGTT against Dnm3, the z-score was inactive: 1.02.

With GCUCACAAGCAAGUGCAACTT against Olfr1352, the z-score is inactive: 1.11.

In the case of GCACAGCUAUCAAUGAGCUTT against Olfr1410, the z-score was inactive: -0.483.

In the case of CAUGAACGUGGGUAAAACGTT against Rab20, the z-score was inactive: 0.0478.

As to “GGGAAUUUUCUCCAAAAUUTT against 5430419D17Rik”, the z-score was inactive: 0.0817.

CGACUUGACUGGUCUUAAATT against Cdk8: the z-score is inactive: -0.636.

Take GCAUGUCAUACCAGCUAGUTT against Nkd2: the z-score was inactive: 1.1.

With GGGCAUUCAAAGAUGACUATT against Mrpl39, the z-score is inactive: -0.59.

For GCUGGAUCGUUACGUUUAUTT against BC020002, the z-score is inactive: -1.83.

As to GCCUGCAUUGCAAAUGAAATT against Krtap13-1, the z-score was inactive: 0.113.

Turning to “CGUGAAGUUGCAUGUAUUUTT against 9530020D24Rik”, the z-score was inactive: -1.36.

For the sequence GCAGACUCUGUAUACCAUGTT against Rfx4, the z-score was inactive: -1.33.

Regarding CUUACAUUCCCAGUGUGCCTT against BC047219, the z-score is inactive: -0.775.

Take GGAACAGGAAUAUGAAAGATT against Olfr836: the z-score is inactive: 0.288.

As for GCUAUCAUAUGUGCCCUAATT against Mrgprc11, the z-score was inactive: -1.05.

Regarding GGAGCUACUGAGAACAUAATT against Hoxd4, the z-score is inactive: -2.44.

In the case of “GCGAUGCUCCUAAUUCUUATT against 1700094E07Rik”, the z-score was inactive: 0.193.

For CCUAGUUAUCAGAAGAAAATT against Pax7, the z-score was inactive: -0.7.

In the case of GGAGAAGCAUGGCUAUAACTT against Rcor1, the z-score is inactive: -0.635.

GGAACAGCAAAUGUUCUUUTT against Rab38: the z-score is inactive: 1.55.

Take “GGAAUCAAAGGUCAAGCCATT against 2500002L14Rik”: the z-score is inactive: 1.78.

Turning to CCCAACCAGACCAAUCCACTT against Enam, the z-score was inactive: -0.457.

In the case of “GCUUGUGAGUCUUUUCCUATT against D430033A06Rik”, the z-score was inactive: 0.988.

For the sequence GGAGACAACUGUCAAGCUGTT against Nope, the z-score is inactive: -0.959.

On to GGUGGAAUCACAAAAACGCTT against Tnfsf5ip1, for which the z-score was inactive: -0.207.

As to CGUAUAGGCACAAAGUAAATT against Gm1012, the z-score is inactive: 0.715.

GCAGCAAACUUUUUAUCCATT against Arcp: the z-score was inactive: 1.22.

GGUCACAGUUGACAAAUGGTT against Cdc16: the z-score is inactive: -2.53.

For “GGUGAAGCCAGUUCACGAATT against A030008J09”, the z-score was inactive: 0.39.

Consider GGCAAUGACUAGAGUAAGATT against Rbbp2, for which the z-score is inactive: 0.357.

On to “GGAGUCGUAUGAUAACAGATT against 1700023B02Rik”, for which the z-score is inactive: -0.629.

With “GGAAGCUAUGAACAAUACATT against Sulf2-pending”, the z-score was inactive: 1.46.

As to “GGAGGUGAUAAAUAGUGUCTT against C330018L13Rik”, the z-score is inactive: -0.0166.

For the sequence CCAUCUAUCAAAAGCAAAUTT against Reg1, the z-score was inactive: 1.75.

Regarding CGGCACUGUCAUAAGUGUGTT against Tex292, the z-score is inactive: -0.13.

Consider CGAUGCUUACGACAUUGUUTT against Dusp6, for which the z-score was inactive: 0.254.

GCGAAUCCACUUAAUUCGATT against Abhd4: the z-score was inactive: 1.48.

For GGAACAGGAAAAAUGAACUTT against Cetn2, the z-score is inactive: 0.351.

For GGAGAAGUUCCCUAACAUGTT against Ppan, the z-score is inactive: -1.01.

Take “GGGAUUGCCGGACAUGGAUTT against 1110007C24Rik”: the z-score was inactive: 0.406.

Turning to “GGUCAUUCUAAUGACAAUCTT against D14Ertd436e”, the z-score was inactive: 0.133.

On to GGCUCUCUUGCUGUGGGUATT against Dll4, for which the z-score was inactive: -0.229.

For the sequence CGAGAUUUCUAUUUCAGCATT against Mapre3, the z-score was inactive: 0.487.

In the case of CGAUUCCGUCAAAUUAAAGTT against Catsper2, the z-score is inactive: -0.66.

Regarding GGGCAUUAAGUACAAAAAGTT against Ap1m2, the z-score was inactive: 0.382.

Turning to GGUCUAUGGAGACAUUAAATT against Ptprt, the z-score is inactive: -0.568.

For the sequence GUCCCACUCAGGAGAAUUUTT against BC027309, the z-score was inactive: 0.852.
